From patent US12077557B2, “Puromycin-based probes and methods of use thereof” (The Regents of the University of California, priority 2018, dated 2024)

Assays:
[1] = LC-MS study of reaction of probe with H2O2 and other ROS; settings: for product of reaction with H2O2 (LC-MS): probe 0.3 mM, H2O2 0.1 mM
Protocol: (§1) MilliQ water was used in all experiments unless otherwise stated. Reaction kinetics of the probes with species of interest and other substrates were investigated by LC-MS (Agilent Technology 6130, Quadrupole LC/MS) coupled with photodiode array for detection (X=275 nm). Confocal microscopy images were recorded on a Zeiss laser scanning microscope 710 with a 40× water-immersion objective lens using Zen 2009 software (Carl Zeiss).
(§2) Peroxymycin-1 and Ctrl-Peroxymycin-1 (0.3 mM), respectively, were dissolved in phosphate buffer (20 mM, pH 7.4)-methanol solution mixture (2:1, v/v) with 3 vol % DMSO and allowed to stand at room temperature. At predetermined time intervals, an aliquot of the solution mixture was taken for LC-MS analysis. Separation was achieved by gradient elution from 5-100% MeOH in water (constant 0.1 vol % formic acid) over 8 min, isocratic with 100% MeOH from 8 to 12 min and returned to initial conditions and equilibrated for 3 minutes. The LC chromatograms were recorded by monitoring absorption at 275 nm.
For the study of the reaction with H2O2, Peroxymycin-1 and Ctrl-Peroxymycin-1 (0.3 mm), respectively, were dissolved in phosphate buffer (20 mM, pH 7.4)-methanol solution mixture (2:1, v/v) with 3 vol % DMSO. H2O2 was then added to the solution mixture (final concentration=0.1 mM), and the reaction mixture was allowed to stand at room temperature. At predetermined time intervals, an aliquot of the solution mixture will be taken for LC-MS analysis as described above.
For other ROS, they were generated as described previously (Carroll, et al. J. Am. Chem. Soc. 2014, 136, 14742), and then added to the solution of peroxymycin with final concentration of 0.1 mM, except that the final concentration of peroxynitrite was 0.05 mM which is its physiologically relevant concentration. An aliquot of the solution was then taken for LC-MS analysis as described above.

[2] = LC-MS study of reaction of probe with H2S and other substrates
Protocol: as §1, §2

SMILES	product of reaction with H2O2 (LC-MS) [1]	release of free puromycin in the presence of cysteine or GSH ([2]; cysteine or GSH 5 mM, LC-MS)	puromycin formed with H2S compared to other substrates ([2]; physiologically relevant concentrations of H2S, GSH, Cys, Hcys, reaction 1 h)	production of puromycin with peroxynitrite relative to H2O2 ([1]; peroxynitrite at 50 μM)
COc1ccc(CC(NC(=O)OCCc2ccc(B3OC(C)(C)C(C)(C)O3)cc2)C(=O)NC2C(CO)OC(n3cnc4c(N(C)C)ncnc43)C2O)cc1 (centres unmarked) [Ctrl-Peroxymycin-1]	without self-immolative cleavage to produce puromycin			
COc1ccc(CC(NC(=O)OCc2ccc(N=[N+]=[N-])cc2)C(=O)NC2C(CO)OC(n3cnc4c(N(C)C)ncnc43)C2O)cc1 (centres unmarked) [H2S-Puro-1]		no significant release of free puromycin	at least 5.0 fold	
COc1ccc(CC(NC(=O)OCc2ccc(B3OC(C)(C)C(C)(C)O3)cc2)C(=O)NC2C(CO)OC(n3cnc4c(N(C)C)ncnc43)C2O)cc1 (centres unmarked) [Peroxymycin-1]	produces puromycin			an order of magnitude less
